Like-named read-outs stand apart in the source and are kept apart here. Results are given in words; binding and its absence hold for the method and conditions named. In cells and extracts the contact can be indirect. A yes stands for co-enrichment or nearness to the bait. Other partners may have been found.
B1: TMED10 (protein, UniProt P49755 32-219)
chain: ISFHLPINSRKCLREEIHKDLLVTGAYEISDQSGGAGGLRSHLKITDSAGHILYSKEDATKGKFAFTTEDYDMFEVCFESKGTGRIPDQLVILDMKHGVEAKNYEEIAKVEKLKPLEVELRRLEDLSESIVNDFAYMKKREEEMRDTNESTNTRVLYFSIFSMFCLIGLATWQVFYLRRFFKAKKLIE
B2: TRAP, a TNF1-associated chaperone (protein, UniProt Q12931 60-704)
chain: STQTAEDKEEPLHSIISSTESVQGSTSKHEFQAETKKLLDIVARSLYSEKEVFIRELISNASDALEKLRHKLVSDGQALPEMEIHLQTNAEKGTITIQDTGIGMTQEELVSNLGTIARSGSKAFLDALQNQAEASSKIIGQFGVGFYSAFMVADRVEVYSRSAAPGSLGYQWLSDGSGVFEIAEASGVRTGTKIIIHLKSDCKEFSSEARVRDVVTKYSNFVSFPLYLNGRRMNTLQAIWMMDPKDVREWQHEEFYRYVAQAHDKPRYTLHYKTDAPLNIRSIFYVPDMKPSMFDVSRELGSSVALYSRKVLIQTKATDILPKWLRFIRGVVDSEDIPLNLSRELLQESALIRKLRDVLQQRLIKFFIDQSKKDAEKYAKFFEDYGLFMREGIVTATEQEVKEDIAKLLRYESSALPSGQLTSLSEYASRMRAGTRNIYYLCAPNRHLAEHSPYYEAMKKKDTEVLFCFEQFDELTLLHLREFDKKKLISVETDIVVDHYKEEKFEDRSPAAECLSEKETEELMAWMRNVLGSRVTNVKVTLRLDTHPAMVTVLEMGAARHFLRMQQLAKTQEERAQLLQPTLEINPRHALIKKLNQLRASEPGLAQLLVDQIYENAMIAAGLVDDPRAMVGRLNELLVKALERH
B3: GIPC1 (protein, UniProt O14908 1-333)
chain: MPLGLGRRKKAPPLVENEEAEPGRGGLGVGEPGPLGGGGSGGPQMGLPPPPPALRPRLVFHTQLAHGSPTGRIEGFTNVKELYGKIAEAFRLPTAEVMFCTLNTHKVDMDKLLGGQIGLEDFIFAHVKGQRKEVEVFKSEDALGLTITDNGAGYAFIKRIKEGSVIDHIHLISVGDMIEAINGQSLLGCRHYEVARLLKELPRGRTFTLKLTEPRKAFDMISQRSAGGRPGSGPQLGTGRGTLRLRSRGPATVEDLPSAFEEKAIEKVDDLLESYMGIRDTELAATMVELGKDKRNPDELAEALDERLGDFAFPDEFVFDVWGAIGDAKVGRY
B4: ATP11A (protein, UniProt P98196 1-1134)
chain: MDCSLVRTLVHRYCAGEENWVDSRTIYVGHREPPPGAEAYIPQRYPDNRIVSSKYTFWNFIPKNLFEQFRRVANFYFLIIFLVQLIIDTPTSPVTSGLPLFFVITVTAIKQGYEDWLRHKADNAMNQCPVHFIQHGKLVRKQSRKLRVGDIVMVKEDETFPCDLIFLSSNRGDGTCHVTTASLDGESSHKTHYAVQDTKGFHTEEDIGGLHATIECEQPQPDLYKFVGRINVYSDLNDPVVRPLGSENLLLRGATLKNTEKIFGVAIYTGMETKMALNYQSKSQKRSAVEKSMNAFLIVYLCILISKALINTVLKYMWQSEPFRDEPWYNQKTESERQRNLFLKAFTDFLAFMVLFNYIIPVSMYVTVEMQKFLGSYFITWDEDMFDEETGEGPLVNTSDLNEELGQVEYIFTDKTGTLTENNMEFKECCIEGHVYVPHVICNGQVLPESSGIDMIDSSPSVNGREREELFFRALCLCHTVQVKDDDSVDGPRKSPDGGKSCVYISSSPDEVALVEGVQRLGFTYLRLKDNYMEILNRENHIERFELLEILSFDSVRRRMSVIVKSATGEIYLFCKGADSSIFPRVIEGKVDQIRARVERNAVEGLRTLCVAYKRLIQEEYEGICKLLQAAKVALQDREKKLAEAYEQIEKDLTLLGATAVEDRLQEKAADTIEALQKAGIKVWVLTGDKMETAAATCYACKLFRRNTQLLELTTKRIEEQSLHDVLFELSKTVLRHSGSLTRDNLSGLSADMQDYGLIIDGAALSLIMKPREDGSSGNYRELFLEICRSCSAVLCCRMAPLQKAQIVKLIKFSKEHPITLAIGDGANDVSMILEAHVGIGVIGKEGRQAARNSDYAIPKFKHLKKMLLVHGHFYYIRISELVQYFFYKNVCFIFPQFLYQFFCGFSQQTLYDTAYLTLYNISFTSLPILLYSLMEQHVGIDVLKRDPTLYRDVAKNALLRWRVFIYWTLLGLFDALVFFFGAYFVFENTTVTSNGQIFGNWTFGTLVFTVMVFTVTLKLALDTHYWTWINHFVIWGSLLFYVVFSLLWGGVIWPFLNYQRMYYVFIQMLSSGPAWLAIVLLVTISLLPDVLKKVLCRQLWPTATERVQTKSQCLSVEQSTIFMLSQTSSSLSF
B5: TMEM30A (protein, UniProt Q9NV96 1-361)
chain: MAMNYNAKDEVDGGPPCAPGGTAKTRRPDNTAFKQQRLPAWQPILTAGTVLPIFFIIGLIFIPIGIGIFVTSNNIREIEIDYTGTEPSSPCNKCLSPDVTPCFCTINFTLEKSFEGNVFMYYGLSNFYQNHRRYVKSRDDSQLNGDSSALLNPSKECEPYRRNEDKPIAPCGAIANSMFNDTLELFLIGNDSYPIPIALKKKGIAWWTDKNVKFRNPPGGDNLEERFKGTTKPVNWLKPVYMLDSDPDNNGFINEDFIVWMRTAALPTFRKLYRLIERKSDLHPTLPAGRYSLNVTYNYPVHYFDGRKRMILSTISWMGGKNPFLGIAYIAVGSISFLLGVVLLVINHKYRNSSNTADITI
B6: TMEM30B (protein, UniProt Q3MIR4 1-351)
chain: MTWSATARGAHQPDNTAFTQQRLPAWQPLLSASIALPLFFCAGLAFIGLGLGLYYSSNGIKELEYDYTGDPGTGNCSVCAAAGQGRALPPPCSCAWYFSLPELFQGPVYLYYELTNFYQNNRRYGVSRDDAQLSGLPSALRHPVNECAPYQRSAAGLPIAPCGAIANSLFNDSFSLWHQRQPGGPYVEVPLDRSGIAWWTDYHVKFRNPPLVNGSLALAFQGTAPPPNWRRPVYELSPDPNNTGFINQDFVVWMRTAALPTFRKLYARIRQGNYSAGLPRGAYRVNITYNYPVRAFGGHKLLIFSSISWMGGKNPFLGIAYLVVGSLCILTGFVMLVVYIRYQDQDDDDEE
B7: STXBP2 (protein, UniProt Q15833 1-593)
chain: MAPSGLKAVVGEKILSGVIRSVKKDGEWKVLIMDHPSMRILSSCCKMSDILAEGITIVEDINKRREPIPSLEAIYLLSPTEKSVQALIKDFQGTPTFTYKAAHIFFTDTCPEPLFSELGRSRLAKVVKTLKEIHLAFLPYEAQVFSLDAPHSTYNLYCPFRAEERTRQLEVLAQQIATLCATLQEYPAIRYRKGPEDTAQLAHAVLAKLNAFKADTPSLGEGPEKTRSQLLIMDRAADPVSPLLHELTFQAMAYDLLDIEQDTYRYETTGLSEAREKAVLLDEDDDLWVELRHMHIADVSKKVTELLRTFCESKRLTTDKANIKDLSQILKKMPQYQKELNKYSTHLHLADDCMKHFKGSVEKLCSVEQDLAMGSDAEGEKIKDSMKLIVPVLLDAAVPAYDKIRVLLLYILLRNGVSEENLAKLIQHANVQAHSSLIRNLEQLGGTVTNPGGSGTSSRLEPRERMEPTYQLSRWTPVIKDVMEDAVEDRLDRNLWPFVSDPAPTASSQAAVSARFGHWHKNKAGIEARAGPRLIVYVMGGVAMSEMRAAYEVTRATEGKWEVLIGSSHILTPTRFLDDLKALDKKLEDIALP
B8: CCT2 (protein, UniProt P78371 1-535)
chain: MASLSLAPVNIFKAGADEERAETARLTSFIGAIAIGDLVKSTLGPKGMDKILLSSGRDASLMVTNDGATILKNIGVDNPAAKVLVDMSRVQDDEVGDGTTSVTVLAAELLREAESLIAKKIHPQTIIAGWREATKAAREALLSSAVDHGSDEVKFRQDLMNIAGTTLSSKLLTHHKDHFTKLAVEAVLRLKGSGNLEAIHIIKKLGGSLADSYLDEGFLLDKKIGVNQPKRIENAKILIANTGMDTDKIKIFGSRVRVDSTAKVAEIEHAEKEKMKEKVERILKHGINCFINRQLIYNYPEQLFGAAGVMAIEHADFAGVERLALVTGGEIASTFDHPELVKLGSCKLIEEVMIGEDKLIHFSGVALGEACTIVLRGATQQILDEAERSLHDALCVLAQTVKDSRTVYGGGCSEMLMAHAVTQLANRTPGKEAVAMESYAKALRMLPTIIADNAGYDSADLVAQLRAAHSEGNTTAGLDMREGTIGDMAILGITESFQVKRQVLLSAAEAAEVILRVDNIIKAAPRKRVPDHHPC

The chains behind the UniProt entries cited, without tags or fusion partners. Where a name states a change or a piece, a line headed by the entry shows the natural chain unless it says otherwise. Residues count along the entry.
UniProt Q99758: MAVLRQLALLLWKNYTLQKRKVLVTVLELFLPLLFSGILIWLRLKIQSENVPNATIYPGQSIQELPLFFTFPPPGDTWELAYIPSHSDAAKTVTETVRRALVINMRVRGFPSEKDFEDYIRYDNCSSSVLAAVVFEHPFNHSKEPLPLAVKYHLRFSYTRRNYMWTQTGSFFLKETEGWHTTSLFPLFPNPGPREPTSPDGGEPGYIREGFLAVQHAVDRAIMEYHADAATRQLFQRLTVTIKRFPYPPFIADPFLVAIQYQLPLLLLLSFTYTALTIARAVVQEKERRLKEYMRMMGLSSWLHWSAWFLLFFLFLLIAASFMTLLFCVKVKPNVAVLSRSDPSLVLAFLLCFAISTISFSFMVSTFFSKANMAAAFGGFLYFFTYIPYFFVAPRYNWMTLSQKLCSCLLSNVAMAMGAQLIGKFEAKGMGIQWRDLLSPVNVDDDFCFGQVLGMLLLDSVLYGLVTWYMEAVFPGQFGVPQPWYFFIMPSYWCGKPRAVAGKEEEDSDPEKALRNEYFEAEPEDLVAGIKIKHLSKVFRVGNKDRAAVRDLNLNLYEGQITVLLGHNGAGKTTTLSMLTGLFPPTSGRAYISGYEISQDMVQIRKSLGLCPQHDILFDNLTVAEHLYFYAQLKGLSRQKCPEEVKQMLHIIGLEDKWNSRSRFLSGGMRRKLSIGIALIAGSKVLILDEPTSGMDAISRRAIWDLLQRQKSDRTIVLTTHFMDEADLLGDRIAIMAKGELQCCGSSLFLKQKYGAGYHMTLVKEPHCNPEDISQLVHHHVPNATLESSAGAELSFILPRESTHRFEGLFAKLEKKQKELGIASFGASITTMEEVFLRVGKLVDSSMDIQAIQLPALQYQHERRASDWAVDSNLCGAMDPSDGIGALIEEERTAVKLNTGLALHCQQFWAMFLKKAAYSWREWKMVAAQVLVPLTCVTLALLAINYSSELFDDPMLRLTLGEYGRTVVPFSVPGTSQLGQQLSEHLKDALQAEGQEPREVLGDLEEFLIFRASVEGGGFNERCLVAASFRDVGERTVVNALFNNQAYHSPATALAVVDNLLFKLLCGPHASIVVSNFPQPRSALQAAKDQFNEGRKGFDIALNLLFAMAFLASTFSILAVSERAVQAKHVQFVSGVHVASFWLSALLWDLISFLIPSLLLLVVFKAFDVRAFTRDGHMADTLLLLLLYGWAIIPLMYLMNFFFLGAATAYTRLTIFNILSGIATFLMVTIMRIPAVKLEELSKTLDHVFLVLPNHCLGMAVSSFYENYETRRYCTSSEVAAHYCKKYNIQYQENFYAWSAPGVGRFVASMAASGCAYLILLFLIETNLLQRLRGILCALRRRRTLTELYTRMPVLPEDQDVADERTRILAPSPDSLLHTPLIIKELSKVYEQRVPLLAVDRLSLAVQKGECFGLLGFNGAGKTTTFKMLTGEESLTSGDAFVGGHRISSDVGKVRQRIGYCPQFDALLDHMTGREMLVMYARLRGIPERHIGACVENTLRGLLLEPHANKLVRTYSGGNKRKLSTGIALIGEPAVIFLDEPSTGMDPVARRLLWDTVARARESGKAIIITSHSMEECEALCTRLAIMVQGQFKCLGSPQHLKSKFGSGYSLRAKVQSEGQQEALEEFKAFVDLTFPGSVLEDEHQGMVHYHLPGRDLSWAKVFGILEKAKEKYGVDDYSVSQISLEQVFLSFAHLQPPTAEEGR
UniProt P51149: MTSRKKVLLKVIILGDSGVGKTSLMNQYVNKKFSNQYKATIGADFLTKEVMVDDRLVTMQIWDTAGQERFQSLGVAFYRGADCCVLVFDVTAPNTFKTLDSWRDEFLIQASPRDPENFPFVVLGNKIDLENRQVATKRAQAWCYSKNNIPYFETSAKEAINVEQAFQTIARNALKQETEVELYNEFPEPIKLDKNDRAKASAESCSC
UniProt P11166: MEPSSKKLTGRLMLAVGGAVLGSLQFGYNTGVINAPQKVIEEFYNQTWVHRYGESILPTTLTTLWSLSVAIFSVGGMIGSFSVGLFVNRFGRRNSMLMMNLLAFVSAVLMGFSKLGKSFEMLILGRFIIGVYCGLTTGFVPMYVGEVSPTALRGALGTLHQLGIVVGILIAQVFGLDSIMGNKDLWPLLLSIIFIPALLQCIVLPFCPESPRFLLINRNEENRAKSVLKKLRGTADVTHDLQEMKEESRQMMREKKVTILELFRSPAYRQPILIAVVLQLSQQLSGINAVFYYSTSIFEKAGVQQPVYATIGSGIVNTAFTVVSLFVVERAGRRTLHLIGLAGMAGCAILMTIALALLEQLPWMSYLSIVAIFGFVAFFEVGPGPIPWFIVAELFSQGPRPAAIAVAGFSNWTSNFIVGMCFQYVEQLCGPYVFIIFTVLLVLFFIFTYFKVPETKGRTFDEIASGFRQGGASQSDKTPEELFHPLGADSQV
UniProt P48643: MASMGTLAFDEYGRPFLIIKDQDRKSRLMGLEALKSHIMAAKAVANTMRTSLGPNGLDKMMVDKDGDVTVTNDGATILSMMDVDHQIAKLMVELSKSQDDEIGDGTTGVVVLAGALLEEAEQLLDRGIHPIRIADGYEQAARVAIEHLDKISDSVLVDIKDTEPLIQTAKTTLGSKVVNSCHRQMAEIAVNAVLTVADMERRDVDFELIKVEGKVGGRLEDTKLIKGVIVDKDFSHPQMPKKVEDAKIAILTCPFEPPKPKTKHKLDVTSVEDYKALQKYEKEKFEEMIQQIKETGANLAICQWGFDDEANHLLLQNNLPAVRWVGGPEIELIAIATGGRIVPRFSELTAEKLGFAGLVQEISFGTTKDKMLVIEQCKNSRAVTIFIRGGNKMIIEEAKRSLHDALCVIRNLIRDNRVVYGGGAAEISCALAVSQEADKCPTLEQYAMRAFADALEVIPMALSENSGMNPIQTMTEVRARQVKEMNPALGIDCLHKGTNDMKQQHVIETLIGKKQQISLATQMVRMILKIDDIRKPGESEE
UniProt P40189, residues 23-918: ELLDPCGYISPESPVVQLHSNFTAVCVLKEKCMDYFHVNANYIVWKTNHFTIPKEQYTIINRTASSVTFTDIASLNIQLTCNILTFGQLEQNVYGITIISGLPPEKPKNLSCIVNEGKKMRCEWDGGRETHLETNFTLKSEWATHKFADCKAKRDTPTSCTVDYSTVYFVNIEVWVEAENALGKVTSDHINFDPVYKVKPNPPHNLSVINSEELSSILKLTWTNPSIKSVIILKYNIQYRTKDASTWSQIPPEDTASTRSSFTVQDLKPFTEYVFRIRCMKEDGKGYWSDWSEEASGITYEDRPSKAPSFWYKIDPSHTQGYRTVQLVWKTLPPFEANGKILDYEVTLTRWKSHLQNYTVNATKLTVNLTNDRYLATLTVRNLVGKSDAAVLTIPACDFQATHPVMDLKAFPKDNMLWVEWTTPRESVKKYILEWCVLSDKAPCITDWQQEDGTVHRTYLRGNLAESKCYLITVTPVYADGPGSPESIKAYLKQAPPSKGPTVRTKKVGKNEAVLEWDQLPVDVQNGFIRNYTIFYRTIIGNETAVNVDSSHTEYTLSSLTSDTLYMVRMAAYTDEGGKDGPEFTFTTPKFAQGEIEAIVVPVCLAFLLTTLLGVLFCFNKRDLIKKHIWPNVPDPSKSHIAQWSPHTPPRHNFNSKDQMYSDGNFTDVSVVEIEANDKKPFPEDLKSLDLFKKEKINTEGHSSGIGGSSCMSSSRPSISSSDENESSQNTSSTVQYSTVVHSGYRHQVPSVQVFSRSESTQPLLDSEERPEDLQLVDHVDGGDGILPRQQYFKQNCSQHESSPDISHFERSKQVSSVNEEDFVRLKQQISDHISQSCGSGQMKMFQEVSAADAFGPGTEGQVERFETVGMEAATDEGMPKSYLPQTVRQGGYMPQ

What was measured:
Assay in all cases: affinity purification with mass spectrometry; ABCA3:GFP fusion protein immunoprecipitated from iAEC2 cell lysates with a monoclonal anti-GFP antibody (Invitrogen GF28R) versus IgG control; trypsinization; coprecipitated proteins identified by mass spectrometry (< 1% FDR cutoff)
[1] = biological target: L101P mutant ABCA3:GFP fusion protein (human) (UniProt Q99758)
[2] = biological target: WT ABCA3:GFP fusion protein (ATP-binding cassette A3 with GFP knocked in at the endogenous stop codon) (human) (UniProt Q99758)
[3] = biological target: WT ABCA3:GFP fusion protein (ATP-binding cassette A3 with GFP knocked in at the endogenous stop codon) (human) (UniProt Q99758); remark: listed apart in the source
[4] = biological target: L101P mutant ABCA3:GFP fusion protein (human) (UniProt Q99758); remark: listed apart in the source

Molecule	binding [1]	binding [2]	binding [3]	binding [4]
RAB7A (from UniProt P51149 1-207)	binds	binds		
glucose transporter SLC2A1 (from UniProt P11166 1-492)		binds		
CCT5 (from UniProt P48643 1-541)	binds			
IL-6 signal transducer, IL6ST (from UniProt P40189 23-918)		binds		
B1			binds	
B2			binds	
B3			binds	binds
B4			binds	binds
B5			binds	binds
B6			binds	binds
B7			binds	binds
B8				binds
